Binding signal data for 42 sequences are collected here from PMC7819943, “Rice protein-binding microarrays: a tool to detect cis-acting elements near promoter regions in rice”.

Chains of the proteins cited; added tags and fusions are not shown.
UniProt Q0JBA9, entry or part of it: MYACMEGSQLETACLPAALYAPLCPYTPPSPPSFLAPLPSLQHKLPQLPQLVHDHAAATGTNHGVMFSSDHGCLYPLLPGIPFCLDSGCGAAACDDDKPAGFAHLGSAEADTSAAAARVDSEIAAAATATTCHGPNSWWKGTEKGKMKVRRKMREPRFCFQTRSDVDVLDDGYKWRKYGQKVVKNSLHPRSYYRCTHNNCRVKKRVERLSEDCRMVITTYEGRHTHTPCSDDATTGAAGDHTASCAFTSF

Some of the results follow.

The target of this assay is OsWRKY34 (Oryza sativa, UniProt Q0JBA9 1-250). The assay can be described thus: protein-binding microarray (RPBM); PBS, 2% BSA, 51.3 ng/ul salmon testes DNA, 50 uM zinc acetate, 200 nM TF, 25 C, 1 h; high values mean tight binding. The conditions noted are these: protein: recombinant; tags: N-terminal polyhistidine and DsRed monomer fusion (pET32a); label: CyDye5-dUTP incorporated in the synthesized complementary strand; 3' TTTTT single-stranded linker to array surface; dsDNA, one strand shown. The method, boiled down: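 Binding signal is defined as the fluorescence intensity of each feature in arbitrary units, read on an Axon 4000B scanner. Transcription factors with N-terminal polyhistidine and DsRed fusions came from E. coli BL21-CodonPlus and were purified on Ni–NTA. They were incubated at 200 nM for 1 h at 25 °C on a custom Agilent array that had been made double-stranded with Cy5-dUTP, with 50 µM zinc acetate present, and the array was washed.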
Take “TAGTTTGATTCTCGTGACACATAGGGCGACCTAAGCTTATCGGAGTCACCTAGTGCAG”: the binding signal is 8300 fluorescence intensity (a.u.).

Turning to “TGTTGTAACCGTTGTTGTTGAAAATCTTTGTGGTTTTTATCGGAGTCACCTAGTGCAG”, the binding signal was 10600 fluorescence intensity (a.u.).

As to “TCCTTAAACTTTTACTTCTGAGTCAAATTAGTCCTTGATACGGAGTCACCTAGTGCAG”, the binding signal is 8470 fluorescence intensity (a.u.).

Regarding “TATATCATATGCGGGCGTGATCTATTGGGGCGGGGTGTGGCGGAGTCACCTAGTGCAG”, the binding signal was 20000 fluorescence intensity (a.u.).

Consider “ACTCCGCAGCCCAATAACCACCATTGTTTTCTCATCTCGACGGAGTCACCTAGTGCAG”, for which the binding signal is 9970 fluorescence intensity (a.u.).

Regarding “TTTGACACCGTTGACTTTTTTAAACATGTTTAACTGTTCGCGGAGTCACCTAGTGCAG”, the binding signal was 33900 fluorescence intensity (a.u.).

Turning to “TCCGTTTCACAATGTAAGTCATTCTAGCATTTCCCACATTCGGAGTCACCTAGTGCAG”, the binding signal is 9770 fluorescence intensity (a.u.).

As for “GACCCTGCCCTACGTTTTCTTGGTCGTTTTGGTCATCTAGCGGAGTCACCTAGTGCAG”, the binding signal was 9570 fluorescence intensity (a.u.).

For the sequence “GTTTTTGTCTAATATATATATATGTGTTATATTTCAATTACGGAGTCACCTAGTGCAG”, the binding signal was 8120 fluorescence intensity (a.u.).

Regarding “ATGTTTTTTGCCAATATTTTGGTACATCATCCGTGTTTGACGGAGTCACCTAGTGCAG”, the binding signal was 11100 fluorescence intensity (a.u.).

In the case of “GAGAGAGAGAGAGATTGAGCTGGTTTTACCAGGAAGTTTCCGGAGTCACCTAGTGCAG”, the binding signal is 8100 fluorescence intensity (a.u.).

“GGAGGAGGTGGCGGCGGAGGGGTTGGTGGTGGAGGTGGTCCGGAGTCACCTAGTGCAG”: the binding signal is 20800 fluorescence intensity (a.u.).

With “CCCCAGCTCACCTCCTCCTCACTACCACCACCACCACCACCGGAGTCACCTAGTGCAG”, the binding signal is 11300 fluorescence intensity (a.u.).

As to “TCATGGCCTCTTGTGTGGGTTTCTAGATGACAACGTTGAACGGAGTCACCTAGTGCAG”, the binding signal is 8060 fluorescence intensity (a.u.).

Regarding “CTGAATATGTAGTTTTATGATACAACACTTTAAATTTATACGGAGTCACCTAGTGCAG”, the binding signal is 8100 fluorescence intensity (a.u.).

Take “CACACCATGCATCCGTCCGCATATACCCTGTCAACAATGTCGGAGTCACCTAGTGCAG”: the binding signal is 9320 fluorescence intensity (a.u.).

For “GCCCCGGTCCTCAAGTACCTTGACAATGTTCCCTTTGCCACGGAGTCACCTAGTGCAG”, the binding signal was 12500 fluorescence intensity (a.u.).

Regarding “CCGCGACTTCGCCCGCCGCGCCGCGCCGCGCCGCCCTGCGCGGAGTCACCTAGTGCAG”, the binding signal is 8390 fluorescence intensity (a.u.).

For the sequence “TGTGCAATACCAAATCCTGACCGTTGATCTAGCATCATTCCGGAGTCACCTAGTGCAG”, the binding signal is 8192 fluorescence intensity (a.u.).

“TGTCTTTTGTAAGAATGAGGTTGTAACTCTTTTTCTTGTTCGGAGTCACCTAGTGCAG”: the binding signal is 9670 fluorescence intensity (a.u.).

As for “TAATACTCTTCTCGCTAAATATTTAGTTTCTATTGCAACTCGGAGTCACCTAGTGCAG”, the binding signal was 10600 fluorescence intensity (a.u.).

Consider “TCAGGGTGTTGGGCAGATCAGTTCACTTGGTTAGCGAGCGCGGAGTCACCTAGTGCAG”, for which the binding signal was 13500 fluorescence intensity (a.u.).

For the sequence “GCCTGATGTCCAGCACGCAGGTCCCATCTCGCCGAGCGCTCGGAGTCACCTAGTGCAG”, the binding signal is 8160 fluorescence intensity (a.u.).

For the sequence “CTCCTCCCAACTTTCCCCTTTGCTACAGTAGCTCCTTCTTCGGAGTCACCTAGTGCAG”, the binding signal is 8100 fluorescence intensity (a.u.).

For “GTCTCCATCAAGTTTATAACCGCTCGCGTCGCGCCCATCTCGGAGTCACCTAGTGCAG”, the binding signal is 11900 fluorescence intensity (a.u.).

On to “TATACACACAAACCGCTGACCCTTCTACCGTGGAAACAACCGGAGTCACCTAGTGCAG”, for which the binding signal was 8600 fluorescence intensity (a.u.).

For the sequence “CACTCCAGTCAGTCCACGCCCACACCGCCGCCGCCCGCATCGGAGTCACCTAGTGCAG”, the binding signal was 10700 fluorescence intensity (a.u.).

In the case of “CCCAAAGTATTGATCGTTTTTGTTTATCATTTTGCTGGATCGGAGTCACCTAGTGCAG”, the binding signal is 10300 fluorescence intensity (a.u.).

As for “GAATAGTCAAACATATTTTAAAAAGTCAACGTAGTCACACCGGAGTCACCTAGTGCAG”, the binding signal was 11900 fluorescence intensity (a.u.).

Turning to “TTTGTAACACTACTTGCCCTTTTTCACATTGCATCATCGTCGGAGTCACCTAGTGCAG”, the binding signal is 9080 fluorescence intensity (a.u.).

Turning to “GTTTCCTAAGGTGTTTAGGACTTCTAGTATGAGTTTGGTTCGGAGTCACCTAGTGCAG”, the binding signal was 8030 fluorescence intensity (a.u.).

With “TTGCAACGGATTTTACTGGGCTTATGGGCTTCTTTTATTGCGGAGTCACCTAGTGCAG”, the binding signal is 9700 fluorescence intensity (a.u.).

As to “ATACTCTCTACTGCTTGTCTCGCTCATTTCAAACATTCTTCGGAGTCACCTAGTGCAG”, the binding signal was 10000 fluorescence intensity (a.u.).

For the sequence “AGAATGGAGGGTGTACGTCTTTTAATCACATTCTTTCATACGGAGTCACCTAGTGCAG”, the binding signal was 8500 fluorescence intensity (a.u.).

In the case of “TGGTCTTGCCTCTCGCTTAGCCTTTTTGTTGCCTTGTGCTCGGAGTCACCTAGTGCAG”, the binding signal was 12300 fluorescence intensity (a.u.).

On to “TACTTGTGTTTATCTGAATTAGTGTTGTGGGGTTTATTTACGGAGTCACCTAGTGCAG”, for which the binding signal is 11700 fluorescence intensity (a.u.).

As to “TAAAGTTGTGCCATTGTTTATTTCTGTTATGGTTAGGTTCCGGAGTCACCTAGTGCAG”, the binding signal was 9430 fluorescence intensity (a.u.).

With “CCCATGCATGCCCTCTTGTTCTCTCCACCGCGAAACATGACGGAGTCACCTAGTGCAG”, the binding signal was 10500 fluorescence intensity (a.u.).

Take “TCAGCAATCTCTCTTTCTACTAGGGTCTCTTCTACCAGCGCGGAGTCACCTAGTGCAG”: the binding signal was 8070 fluorescence intensity (a.u.).

In the case of “GAACACGCACCGACTAAATGTTAAATTTTTTTTCTTCACTCGGAGTCACCTAGTGCAG”, the binding signal was 9280 fluorescence intensity (a.u.).

On to “AGGGAAAGATACTCAGCTGCTTTTGTTCAGTTATTCTTCCCGGAGTCACCTAGTGCAG”, for which the binding signal is 11100 fluorescence intensity (a.u.).

Turning to “GGTTGAGTCAGTGTGTGTGTGTCGTGCTGCTGCATGTGTGCGGAGTCACCTAGTGCAG”, the binding signal was 10400 fluorescence intensity (a.u.).
